Values are relative to the signal before dosing, not to a vehicle control; the signal also falls without drug.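 Fibroblast labels name human fibroblasts: mostly primary ones from tissues such as uterus (C12385, HUF), lung (H6013), bone (Hs27A), adrenal (HADF) and skin (WS1), plus mammary HMF and breast cancer-associated Hs343T. The cancer cells are basal-like or mesenchymal-like triple-negative breast cancer lines. The paper calls a changed response a hit when it shifts by more than 3x the replicate standard deviation. The tissue of the other fibroblasts is not given here.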
Tested on: Hs578T
Experiment: relative JC-1 red fluorescence (viability) vs pre-drug, coculture with fibroblast (fraction); higher = more viable cancer cells
Experimental: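 JC-1 labelled TNBC cells cocultured 1:1 (1,500 cells each) with CellTrace Violet stained primary or stromal fibroblasts in 384-well plates in FluoroBrite medium, treated with one of 42 anticancer drugs at 0.1, 1, 10 or 100 uM. JC-1 red fluorescence (mitochondrial integrity in cancer cells only) was read by plate reader every 8 h for 72 h. Values are normalised to each well's pre-drug value. The stock of one drug was tenfold lower, so its dose labels may be too high.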

COc1cc([C@@H]2c3cc4c(cc3[C@@H](O[C@@H]3O[C@@H]5CO[C@@H](C)O[C@H]5[C@H](O)[C@H]3O)[C@H]3COC(=O)[C@H]23)OCO4)cc(OC)c1O [Etoposide]
relative JC-1 red fluorescence
Details | 8 h | 16 h | 24 h | 32 h | 40 h | 48 h | 56 h | 64 h | 72 h
0.1 µM | 0.926 | 0.811 | 0.696 | 0.632 | 0.553 | 0.504 | 0.467 | 0.42 | 0.403
1 µM | 0.868 | 0.757 | 0.686 | 0.624 | 0.561 | 0.517 | 0.504 | 0.4721 | 0.464

relative JC-1 red fluorescence
Details | 8 h | 16 h | 24 h | 32 h | 40 h | 48 h | 56 h | 64 h | 72 h
0.1 µM, coculture fibroblast: C12385 | 0.805 | 0.702 | 0.684 | 0.584 | 0.536 | 0.521 | 0.5049 | 0.50661 | 0.5174
0.1 µM, coculture fibroblast: H6013 | 0.8528 | 0.813 | 0.772 | 0.749 | 0.726 | 0.72 | 0.703 | 0.706 | 0.682
0.1 µM, coculture fibroblast: H6019 | 0.787 | 0.685 | 0.666 | 0.573 | 0.538 | 0.515 | 0.485 | 0.47 | 0.449
0.1 µM, coculture fibroblast: H6076 | 0.8979 | 0.842 | 0.83 | 0.813 | 0.785 | 0.787 | 0.771 | 0.781 | 0.783
0.1 µM, coculture fibroblast: H6231 | 0.884 | 0.782 | 0.737 | 0.688 | 0.618 | 0.592 | 0.549 | 0.538 | 0.527
0.1 µM, coculture fibroblast: HADF | 0.882 | 0.822 | 0.7423 | 0.6778 | 0.627 | 0.594 | 0.558 | 0.552 | 0.529
0.1 µM, coculture fibroblast: HCFa | 0.8168 | 0.735 | 0.6591 | 0.5883 | 0.522 | 0.4946 | 0.454 | 0.438 | 0.405
0.1 µM, coculture fibroblast: HCPF | 0.921 | 0.834 | 0.766 | 0.7302 | 0.6649 | 0.643 | 0.624 | 0.59 | 0.578
0.1 µM, coculture fibroblast: HHSteC | 0.86015 | 0.799 | 0.7425 | 0.6848 | 0.625 | 0.582 | 0.555 | 0.5312 | 0.4948
0.1 µM, coculture fibroblast: HMF | 0.9247 | 0.852 | 0.774 | 0.74 | 0.67 | 0.633 | 0.5952 | 0.572 | 0.554
0.1 µM, coculture fibroblast: HPFa | 0.878 | 0.788 | 0.724 | 0.664 | 0.63 | 0.601 | 0.565 | 0.547 | 0.515
0.1 µM, coculture fibroblast: HUF | 0.854 | 0.743 | 0.725 | 0.623 | 0.569 | 0.543 | 0.516 | 0.514 | 0.516
0.1 µM, coculture fibroblast: Hs27A | 0.8659 | 0.79 | 0.734 | 0.696 | 0.641 | 0.628 | 0.599 | 0.588 | 0.551
0.1 µM, coculture fibroblast: Hs343T | 0.923 | 0.82 | 0.7496 | 0.711 | 0.627 | 0.596 | 0.547 | 0.528 | 0.528
0.1 µM, coculture fibroblast: WS1 | 0.784 | 0.677 | 0.627 | 0.532 | 0.477 | 0.459 | 0.435 | 0.436 | 0.44
1 µM, coculture fibroblast: C12385 | 0.791 | 0.68 | 0.669 | 0.571 | 0.514 | 0.493 | 0.48 | 0.489 | 0.501
1 µM, coculture fibroblast: H6013 | 0.887 | 0.825 | 0.77 | 0.744 | 0.713 | 0.695 | 0.666 | 0.646 | 0.60888
1 µM, coculture fibroblast: H6019 | 0.76 | 0.683 | 0.669 | 0.583 | 0.556 | 0.535 | 0.509 | 0.493 | 0.474
1 µM, coculture fibroblast: H6076 | 0.853 | 0.777 | 0.741 | 0.7265 | 0.689 | 0.688 | 0.683 | 0.677 | 0.684
1 µM, coculture fibroblast: H6231 | 0.8905 | 0.766 | 0.7199 | 0.6723 | 0.609 | 0.582 | 0.541 | 0.519 | 0.515
1 µM, coculture fibroblast: HADF | 0.834 | 0.779 | 0.716 | 0.672 | 0.646 | 0.624 | 0.593 | 0.589 | 0.5724
1 µM, coculture fibroblast: HCFa | 0.82 | 0.756 | 0.679 | 0.61 | 0.555 | 0.524 | 0.486 | 0.47 | 0.432
1 µM, coculture fibroblast: HCPF | 0.877 | 0.792 | 0.735 | 0.694 | 0.627 | 0.6 | 0.584 | 0.544 | 0.531
1 µM, coculture fibroblast: HHSteC | 0.851 | 0.786 | 0.721 | 0.664 | 0.605 | 0.569 | 0.547 | 0.521 | 0.489
1 µM, coculture fibroblast: HMF | 0.8729 | 0.776 | 0.709 | 0.682 | 0.619 | 0.592 | 0.559 | 0.532 | 0.5111
1 µM, coculture fibroblast: HPFa | 0.883 | 0.8091 | 0.7494 | 0.7 | 0.663 | 0.636 | 0.587 | 0.563 | 0.517
1 µM, coculture fibroblast: HUF | 0.821 | 0.69 | 0.65 | 0.5351 | 0.468 | 0.438 | 0.418 | 0.417 | 0.424
1 µM, coculture fibroblast: Hs27A | 0.884 | 0.8083 | 0.785 | 0.754 | 0.707 | 0.713 | 0.675 | 0.6755 | 0.641
1 µM, coculture fibroblast: Hs343T | 0.8762 | 0.763 | 0.7156 | 0.67802 | 0.606 | 0.576 | 0.5531 | 0.532 | 0.5306
1 µM, coculture fibroblast: WS1 | 0.806 | 0.719 | 0.687 | 0.588 | 0.528 | 0.525 | 0.506 | 0.513 | 0.526
